Assay results taken from the supplement of paper PMC10849652.
The other results are listed elsewhere or left out.

By UniProt entry, the sequences of proteins in these tests, tags left out. Where a name states a change or a piece, a line headed by the entry shows the natural chain unless it says otherwise.
UniProt P22061: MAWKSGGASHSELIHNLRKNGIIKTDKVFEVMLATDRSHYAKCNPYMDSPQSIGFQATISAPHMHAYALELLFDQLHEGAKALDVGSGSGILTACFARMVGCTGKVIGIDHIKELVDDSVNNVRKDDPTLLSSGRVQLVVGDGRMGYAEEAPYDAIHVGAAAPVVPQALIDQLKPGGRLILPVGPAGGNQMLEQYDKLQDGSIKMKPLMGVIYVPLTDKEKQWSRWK
UniProt Q99497, whole entry, looked up: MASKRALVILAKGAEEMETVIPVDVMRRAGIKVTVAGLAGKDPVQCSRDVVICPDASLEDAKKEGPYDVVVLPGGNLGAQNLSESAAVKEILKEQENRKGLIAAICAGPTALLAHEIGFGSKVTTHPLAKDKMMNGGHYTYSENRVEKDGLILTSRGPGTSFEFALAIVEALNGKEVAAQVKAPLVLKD
UniProt Q9BTK6, whole entry, looked up: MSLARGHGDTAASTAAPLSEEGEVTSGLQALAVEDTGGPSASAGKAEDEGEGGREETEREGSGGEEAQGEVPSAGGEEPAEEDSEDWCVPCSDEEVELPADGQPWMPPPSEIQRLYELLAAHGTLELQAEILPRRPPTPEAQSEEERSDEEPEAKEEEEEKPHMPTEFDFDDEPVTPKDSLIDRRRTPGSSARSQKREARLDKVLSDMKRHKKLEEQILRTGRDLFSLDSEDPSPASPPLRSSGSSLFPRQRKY
UniProt Q8NBP7, whole entry, looked up: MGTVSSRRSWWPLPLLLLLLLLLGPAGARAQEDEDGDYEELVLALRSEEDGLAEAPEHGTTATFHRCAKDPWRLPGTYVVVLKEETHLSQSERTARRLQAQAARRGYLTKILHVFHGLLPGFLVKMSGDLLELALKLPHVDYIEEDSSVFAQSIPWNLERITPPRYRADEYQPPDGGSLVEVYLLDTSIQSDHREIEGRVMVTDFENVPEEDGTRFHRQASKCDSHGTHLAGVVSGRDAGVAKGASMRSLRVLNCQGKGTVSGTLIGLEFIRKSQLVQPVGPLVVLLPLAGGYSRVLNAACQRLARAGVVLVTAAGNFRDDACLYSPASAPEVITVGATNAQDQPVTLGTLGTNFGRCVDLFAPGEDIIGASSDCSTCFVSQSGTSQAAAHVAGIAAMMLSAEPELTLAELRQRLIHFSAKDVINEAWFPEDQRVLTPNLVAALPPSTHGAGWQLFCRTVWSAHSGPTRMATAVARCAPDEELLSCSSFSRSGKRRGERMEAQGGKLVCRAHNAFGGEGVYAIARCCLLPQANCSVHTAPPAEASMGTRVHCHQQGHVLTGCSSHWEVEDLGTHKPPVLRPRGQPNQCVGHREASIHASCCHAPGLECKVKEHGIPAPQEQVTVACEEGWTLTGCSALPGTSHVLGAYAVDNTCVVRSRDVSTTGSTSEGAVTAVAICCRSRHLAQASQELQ
UniProt P40425: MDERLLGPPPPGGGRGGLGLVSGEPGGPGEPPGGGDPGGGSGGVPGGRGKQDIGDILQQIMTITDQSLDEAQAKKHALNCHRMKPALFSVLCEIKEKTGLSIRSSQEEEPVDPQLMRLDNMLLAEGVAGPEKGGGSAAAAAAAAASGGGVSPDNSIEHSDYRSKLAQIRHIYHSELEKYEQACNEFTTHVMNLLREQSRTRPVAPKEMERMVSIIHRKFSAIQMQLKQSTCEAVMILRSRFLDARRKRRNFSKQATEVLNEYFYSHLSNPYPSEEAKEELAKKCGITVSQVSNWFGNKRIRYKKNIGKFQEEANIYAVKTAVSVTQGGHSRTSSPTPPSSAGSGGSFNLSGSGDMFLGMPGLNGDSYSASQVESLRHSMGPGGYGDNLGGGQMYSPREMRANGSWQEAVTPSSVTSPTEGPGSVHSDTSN
UniProt Q15121, whole entry, looked up: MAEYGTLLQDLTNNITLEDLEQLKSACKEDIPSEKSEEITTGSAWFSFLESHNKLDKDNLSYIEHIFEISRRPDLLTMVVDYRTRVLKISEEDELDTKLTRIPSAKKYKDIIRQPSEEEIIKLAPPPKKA
UniProt Q15102: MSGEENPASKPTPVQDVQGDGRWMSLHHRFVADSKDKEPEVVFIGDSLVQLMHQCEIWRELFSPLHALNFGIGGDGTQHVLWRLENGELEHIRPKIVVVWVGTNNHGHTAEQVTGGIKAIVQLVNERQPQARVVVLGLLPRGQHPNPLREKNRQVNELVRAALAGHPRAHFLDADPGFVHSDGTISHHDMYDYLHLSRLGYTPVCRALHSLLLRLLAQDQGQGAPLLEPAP
UniProt Q9UKL6: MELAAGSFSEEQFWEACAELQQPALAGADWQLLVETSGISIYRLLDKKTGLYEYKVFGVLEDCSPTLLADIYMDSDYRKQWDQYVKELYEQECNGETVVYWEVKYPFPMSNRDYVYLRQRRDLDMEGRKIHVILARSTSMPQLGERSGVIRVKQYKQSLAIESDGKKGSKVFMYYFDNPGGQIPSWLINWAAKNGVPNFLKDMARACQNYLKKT
UniProt Q6L8Q7: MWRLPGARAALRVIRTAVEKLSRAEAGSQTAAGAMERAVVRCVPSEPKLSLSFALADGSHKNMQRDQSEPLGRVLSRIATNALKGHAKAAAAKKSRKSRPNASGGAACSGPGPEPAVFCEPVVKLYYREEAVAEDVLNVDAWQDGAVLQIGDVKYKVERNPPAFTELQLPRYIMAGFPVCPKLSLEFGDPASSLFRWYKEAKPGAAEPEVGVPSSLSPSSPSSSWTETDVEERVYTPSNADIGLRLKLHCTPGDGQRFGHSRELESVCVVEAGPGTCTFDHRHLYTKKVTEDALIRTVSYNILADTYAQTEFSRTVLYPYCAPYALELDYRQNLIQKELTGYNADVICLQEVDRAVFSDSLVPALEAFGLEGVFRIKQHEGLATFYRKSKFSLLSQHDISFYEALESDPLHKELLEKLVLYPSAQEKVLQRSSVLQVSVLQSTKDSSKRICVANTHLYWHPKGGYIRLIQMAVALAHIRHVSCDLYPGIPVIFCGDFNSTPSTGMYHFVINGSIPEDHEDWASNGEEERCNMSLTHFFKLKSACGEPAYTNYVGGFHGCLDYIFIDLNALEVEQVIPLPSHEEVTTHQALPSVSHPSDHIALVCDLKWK
UniProt Q96GU1: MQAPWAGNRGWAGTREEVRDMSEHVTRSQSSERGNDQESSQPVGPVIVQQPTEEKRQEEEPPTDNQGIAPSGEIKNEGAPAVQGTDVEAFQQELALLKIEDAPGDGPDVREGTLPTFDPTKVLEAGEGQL
UniProt Q9NR12, whole entry, looked up: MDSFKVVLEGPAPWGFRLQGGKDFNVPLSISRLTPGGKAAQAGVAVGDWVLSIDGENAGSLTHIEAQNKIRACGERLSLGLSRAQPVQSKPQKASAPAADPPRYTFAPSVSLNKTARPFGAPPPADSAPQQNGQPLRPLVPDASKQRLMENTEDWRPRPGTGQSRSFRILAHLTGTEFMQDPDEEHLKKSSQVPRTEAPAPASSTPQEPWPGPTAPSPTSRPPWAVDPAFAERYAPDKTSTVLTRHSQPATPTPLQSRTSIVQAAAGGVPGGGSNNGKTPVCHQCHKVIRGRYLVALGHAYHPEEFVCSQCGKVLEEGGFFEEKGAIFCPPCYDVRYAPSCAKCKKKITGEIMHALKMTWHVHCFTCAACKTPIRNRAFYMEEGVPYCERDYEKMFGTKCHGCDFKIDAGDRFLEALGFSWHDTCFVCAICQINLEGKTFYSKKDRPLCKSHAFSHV
UniProt P51003: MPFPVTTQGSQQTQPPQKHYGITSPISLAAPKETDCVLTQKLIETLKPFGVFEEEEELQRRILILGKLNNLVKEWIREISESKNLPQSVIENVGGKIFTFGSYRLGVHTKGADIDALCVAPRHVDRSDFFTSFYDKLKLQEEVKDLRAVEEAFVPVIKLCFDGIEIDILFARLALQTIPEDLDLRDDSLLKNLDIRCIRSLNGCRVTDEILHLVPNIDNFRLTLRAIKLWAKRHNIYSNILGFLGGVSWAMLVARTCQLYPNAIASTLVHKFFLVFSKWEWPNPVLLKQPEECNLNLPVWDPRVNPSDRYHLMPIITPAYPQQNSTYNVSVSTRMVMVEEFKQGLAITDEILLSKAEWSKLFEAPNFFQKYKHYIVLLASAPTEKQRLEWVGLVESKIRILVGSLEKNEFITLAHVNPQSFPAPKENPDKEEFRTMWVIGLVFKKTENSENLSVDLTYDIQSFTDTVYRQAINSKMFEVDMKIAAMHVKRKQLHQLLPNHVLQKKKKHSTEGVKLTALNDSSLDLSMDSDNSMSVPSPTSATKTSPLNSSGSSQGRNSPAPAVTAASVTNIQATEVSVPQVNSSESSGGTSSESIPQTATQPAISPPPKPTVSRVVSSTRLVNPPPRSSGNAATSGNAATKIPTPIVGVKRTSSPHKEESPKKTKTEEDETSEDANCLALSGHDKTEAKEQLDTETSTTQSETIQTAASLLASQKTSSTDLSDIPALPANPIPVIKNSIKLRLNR
UniProt Q9HBI1: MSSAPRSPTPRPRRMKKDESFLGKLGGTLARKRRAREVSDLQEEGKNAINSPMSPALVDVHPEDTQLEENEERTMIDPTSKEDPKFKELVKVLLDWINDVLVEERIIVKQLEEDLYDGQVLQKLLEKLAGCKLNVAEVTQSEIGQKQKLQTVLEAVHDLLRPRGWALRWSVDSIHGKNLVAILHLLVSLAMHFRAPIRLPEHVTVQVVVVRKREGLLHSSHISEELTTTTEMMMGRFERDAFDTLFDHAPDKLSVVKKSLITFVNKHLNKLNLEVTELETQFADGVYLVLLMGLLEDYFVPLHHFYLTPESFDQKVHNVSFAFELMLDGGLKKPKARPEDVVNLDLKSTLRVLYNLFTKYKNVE
UniProt O75340: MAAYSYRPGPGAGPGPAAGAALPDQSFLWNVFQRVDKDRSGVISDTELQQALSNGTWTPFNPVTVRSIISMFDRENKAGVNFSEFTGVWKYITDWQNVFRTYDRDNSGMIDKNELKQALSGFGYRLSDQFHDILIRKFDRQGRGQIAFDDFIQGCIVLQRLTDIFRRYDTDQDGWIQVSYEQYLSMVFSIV
UniProt O00541, whole entry, looked up: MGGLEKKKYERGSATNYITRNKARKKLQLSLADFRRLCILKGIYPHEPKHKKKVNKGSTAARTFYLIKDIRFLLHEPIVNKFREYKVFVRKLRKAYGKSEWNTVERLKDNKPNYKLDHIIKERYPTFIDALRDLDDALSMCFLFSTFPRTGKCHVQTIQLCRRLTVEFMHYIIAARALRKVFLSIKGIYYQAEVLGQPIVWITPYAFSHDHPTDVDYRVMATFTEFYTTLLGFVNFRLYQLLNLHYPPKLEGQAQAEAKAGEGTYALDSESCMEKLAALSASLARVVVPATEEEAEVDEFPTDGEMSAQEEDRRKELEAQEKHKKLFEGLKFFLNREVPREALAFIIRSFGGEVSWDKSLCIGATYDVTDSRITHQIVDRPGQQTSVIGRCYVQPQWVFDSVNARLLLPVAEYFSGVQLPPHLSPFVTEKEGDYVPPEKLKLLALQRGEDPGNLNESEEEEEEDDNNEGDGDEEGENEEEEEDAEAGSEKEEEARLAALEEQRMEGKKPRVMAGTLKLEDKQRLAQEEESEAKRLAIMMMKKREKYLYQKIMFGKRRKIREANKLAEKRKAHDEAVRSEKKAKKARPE
UniProt Q86TB9: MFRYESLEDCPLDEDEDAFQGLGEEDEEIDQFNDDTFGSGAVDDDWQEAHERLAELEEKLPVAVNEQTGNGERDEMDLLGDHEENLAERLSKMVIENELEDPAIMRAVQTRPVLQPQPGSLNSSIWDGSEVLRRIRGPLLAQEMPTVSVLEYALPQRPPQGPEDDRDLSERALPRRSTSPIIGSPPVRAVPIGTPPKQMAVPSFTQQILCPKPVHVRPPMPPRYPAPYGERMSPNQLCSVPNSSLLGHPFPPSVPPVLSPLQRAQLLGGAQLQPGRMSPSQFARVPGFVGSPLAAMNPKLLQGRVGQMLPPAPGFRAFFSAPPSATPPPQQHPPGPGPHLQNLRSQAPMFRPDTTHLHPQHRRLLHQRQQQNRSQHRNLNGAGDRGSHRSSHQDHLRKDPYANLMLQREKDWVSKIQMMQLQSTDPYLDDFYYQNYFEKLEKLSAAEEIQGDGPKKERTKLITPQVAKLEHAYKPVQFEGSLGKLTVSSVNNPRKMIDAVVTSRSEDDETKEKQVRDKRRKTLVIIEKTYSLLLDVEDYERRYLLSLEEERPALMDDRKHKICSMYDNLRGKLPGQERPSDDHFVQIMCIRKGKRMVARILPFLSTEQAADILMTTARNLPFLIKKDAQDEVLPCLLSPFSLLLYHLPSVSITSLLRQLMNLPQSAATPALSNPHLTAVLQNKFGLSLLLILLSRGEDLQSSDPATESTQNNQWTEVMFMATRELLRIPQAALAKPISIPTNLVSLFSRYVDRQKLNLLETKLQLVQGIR
UniProt P35227: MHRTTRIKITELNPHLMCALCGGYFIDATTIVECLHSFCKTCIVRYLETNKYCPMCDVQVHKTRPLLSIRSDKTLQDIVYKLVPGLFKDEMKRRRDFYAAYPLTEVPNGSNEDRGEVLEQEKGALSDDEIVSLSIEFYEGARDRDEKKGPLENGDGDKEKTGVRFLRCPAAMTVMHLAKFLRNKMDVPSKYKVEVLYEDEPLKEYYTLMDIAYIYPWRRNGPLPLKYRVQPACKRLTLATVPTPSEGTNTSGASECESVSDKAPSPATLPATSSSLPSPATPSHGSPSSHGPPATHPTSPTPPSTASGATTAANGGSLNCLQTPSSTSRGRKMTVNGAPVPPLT

How the values were obtained:
Experiment in all cases: log2 fold change, soluble protein after heating vs DMSO (PISA); higher = thermal stabilisation; K562 cells, 10 uM, 30 min; active = over 0.2 and 3.5 SD of the protein, either way, in both replicates (recomputed)
erlotinib = compound: C#Cc1cccc(Nc2ncnc3cc(OCCOC)c(OCCOC)cc23)c1 [erlotinib]
Method in brief: (§1)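 Quantification of soluble protein used TMTpro 16plex LC-MS/MS, with channel sums equalised. Samples were the supernatant after 21,000xg for 90 min of pooled aliquots from K562 cells (2×10^6 cells/mL) treated with 10 μM compound for 30 min, heated for 3 min over 48°C-58°C, and extracted in PBS with 0.5% NP-40 at 4°C. Values, from duplicates, describe thermal stability against control samples on a log2 fold-change scale.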

[1] = compound: C/C(=N\NC(=O)C1=CC(=CC=C1)S(=O)(=O)N2CCOCC2)/C3=C(C=CC(=C3)Cl)O
Method in brief: as §1

[2] = compound: C1=CC(=C(C=C1Cl)C2=NC3=NC=CN=C3C(=N2)NC4=CC=NC=C4)F
Method in brief: as §1

[3] = compound: C1=CC(=CC=C1C2=NC3=C(N2)C=C(C=C3)C(=O)N)OC4=CC=C(C=C4)Cl
Method in brief: as §1

[4] = compound: C1=CC2=C(C=CC(=C2)/C=C\3/C(=O)NC(=NCC4=CC=CS4)S3)N=C1
Method in brief: as §1

[5] = compound: C1=CC2=NC=CN=C2C=C1/C=C/3\C(=O)NC(=O)S3
Method in brief: as §1

[6] = compound: C1=CC=C(C=C1)C2=NC(=C(N2)C3=CC=NC=C3)C4=CC(=C(C=C4)Cl)O
Method in brief: as §1

[7] = compound: C1=CC=C2C(=C1)C3=NNC4=CC=CC(=C43)C2=O
Method in brief: as §1

[8] = compound: C1CCN(C1)C(=O)NC2=CC=CC(=C2)NC3=NC=C(C(=N3)NCCC4=CN=CN4)Br
Method in brief: as §1

[9] = compound: C1CN(CCC1(CC2=CC=C(C=C2)Cl)N)C3=NC=NC4=C3C=CN4
Method in brief: as §1

Measured: log2 fold change

PDCL (UniProt Q13371)
inactive: erlotinib 0.048 | [1] 0.033 | [2] 0.011 | [3] 0.008 | [4] -0.085 | [5] 0.107 | [6] 0.018 | [7] -0.002 | [8] 0.012 | [9] -0.014

PCMT1 isoform 2 (UniProt P22061)
inactive: erlotinib 0.028 | [1] 0.05 | [2] 0.063 | [3] -0.009 | [4] 0.045 | [5] -0.002 | [6] 0.022 | [7] 0.021 | [8] 0.005 | [9] 0.009

PARK7 (UniProt Q99497)
inactive: erlotinib 0.013 | [1] 0.072 | [2] 0.072 | [3] -0.02 | [4] -0.06 | [5] -0.038 | [6] 0.136 | [7] 0.041 | [8] -0.059 | [9] 0.055

PAGR1 (UniProt Q9BTK6)
inactive: erlotinib 0.004 | [1] -0.015 | [2] 0.047 | [3] -0.04 | [4] 0.01 | [5] 0.103 | [6] -0.108 | [7] 0.062 | [8] -0.044 | [9] -0.031

PDCD11 (UniProt Q14690)
inactive: erlotinib 0.172 | [1] -0.07 | [2] 0.144 | [3] 0.055 | [4] 0.168 | [5] 0.048 | [6] -0.162 | [7] 0.033 | [8] 0.007 | [9] 0.014

PCYT2 isoform 3 (UniProt Q99447)
inactive: erlotinib -0.019 | [1] -0.022 | [2] 0.07 | [3] 0.004 | [4] -0.012 | [5] 0.008 | [6] -0.023 | [7] 0.017 | [8] -0.023 | [9] 0.075

PCSK9 (UniProt Q8NBP7)
inactive: erlotinib -0.033 | [1] -0.02 | [2] -0.054 | [3] -0.047 | [4] 0.013 | [5] 0.037 | [6] 0.028 | [7] -0.003 | [8] -0.027 | [9] 0.032

PBX2 (UniProt P40425)
inactive: erlotinib 0.111 | [1] 0.076 | [2] 0.055 | [3] 0.007 | [4] 0.009 | [5] -0.039 | [6] 0.091 | [7] -0.098 | [8] -0.036 | [9] -0.269

PEA15 isoform 2 (UniProt Q15121)
inactive: erlotinib 0.001 | [1] 0.042 | [2] 0.056 | [3] 0.026 | [4] -0.014 | [5] 0.055 | [6] -0.006 | [7] 0.072 | [8] 0.016 | [9] -0.064

PDCL3 (UniProt Q9H2J4)
inactive: erlotinib -0.017 | [1] 0 | [2] 0.065 | [3] -0.034 | [4] -0.016 | [5] 0.039 | [6] -0.025 | [7] 0.022 | [8] 0.003 | [9] 0.026

PAFAH1B3 (UniProt Q15102)
inactive: erlotinib 0.028 | [1] 0.091 | [2] 0.029 | [3] 0.017 | [4] 0.148 | [5] -0.038 | [6] 0.085 | [7] 0.061 | [8] -0.058 | [9] 0.032

PCTP (UniProt Q9UKL6)
inactive: erlotinib 0.035 | [1] -0.04 | [2] 0.065 | [3] 0.046 | [4] 0.057 | [5] 0.076 | [6] 0.012 | [7] 0.002 | [8] 0.049 | [9] -0.035

PCCB isoform 2 (UniProt P05166)
inactive: erlotinib 0.018 | [1] 0.006 | [2] -0.016 | [3] -0.015 | [4] -0.024 | [5] -0.004 | [6] -0.022 | [7] 0.015 | [8] -0.015 | [9] 0.042

PDE12 (UniProt Q6L8Q7)
inactive: erlotinib -0.023 | [1] 0.018 | [2] 0.052 | [3] 0.027 | [4] 0.001 | [5] -0.008 | [6] -0.015 | [7] 0.054 | [8] -0.04 | [9] 0.026

PANK4 (UniProt Q9NVE7)
inactive: erlotinib -0.031 | [1] -0.033 | [2] 0.048 | [3] -0.017 | [4] 0.097 | [5] 0.064 | [6] -0.003 | [7] 0.006 | [8] -0.044 | [9] -0.037

PANK1 (UniProt Q8TE04)
inactive: erlotinib -0.049 | [1] -0.044 | [2] 0.01 | [3] 0.058 | [4] 0.028 | [5] -0.101 | [6] -0.013 | [7] -0.052 | [8] -0.017 | [9] 0.017

PAGE1 (UniProt O75459)
inactive: erlotinib -0.061 | [1] 0.03 | [2] 0.032 | [3] -0.053 | [4] -0.088 | [5] 0.063 | [6] 0.161 | [7] -0.029 | [8] 0.031 | [9] 0.049

PAGE5 (UniProt Q96GU1)
inactive: erlotinib -0.208 | [1] -0.114 | [2] 0.136 | [3] 0.024 | [4] 0.017 | [5] 0.182 | [6] 0.055 | [7] -0.031 | [8] -0.007 | [9] -0.271

PDLIM7 (UniProt Q9NR12)
inactive: erlotinib 0.013 | [1] 0.039 | [2] 0.1 | [3] -0.037 | [4] -0.01 | [5] 0.002 | [6] 0.073 | [7] 0.016 | [8] -0.01 | [9] 0.133

PAPOLA (UniProt P51003)
inactive: erlotinib -0.018 | [1] 0.062 | [2] 0.069 | [3] 0.009 | [4] 0.031 | [5] 0.022 | [6] 0.032 | [7] 0.042 | [8] -0.02 | [9] -0.009

PCCA (UniProt P05165)
inactive: erlotinib 0.01 | [1] -0.029 | [2] 0.034 | [3] 0.038 | [4] 0.089 | [5] 0.061 | [6] 0.073 | [7] 0.035 | [8] -0.02 | [9] 0.038

PARVB (UniProt Q9HBI1)
inactive: erlotinib -0.006 | [1] 0.057 | [2] 0.012 | [3] 0.074 | [4] 0.032 | [5] 0.032 | [6] 0.056 | [7] -0.006 | [8] -0.009 | [9] 0.032

PASK (UniProt Q96RG2)
inactive: erlotinib 0.045 | [1] 0.136 | [2] 0.046 | [3] -0.006 | [4] 0.022 | [5] 0.059 | [6] -0.033 | [7] 0.024 | [8] 0.055 | [9] 0.034

PDZD8 (UniProt Q8NEN9)
inactive: erlotinib 0.011 | [1] 0.054 | [2] 0.028 | [3] 0.017 | [4] 0.012 | [5] 0.052 | [6] 0.05 | [7] 0 | [8] -0.006 | [9] -0.001

PDCD6 (UniProt O75340)
inactive: erlotinib -0.006 | [1] 0.038 | [2] 0.066 | [3] 0.004 | [4] 0.034 | [5] 0.02 | [6] -0.061 | [7] 0.029 | [8] 0.024 | [9] -0.048

PC (UniProt P11498)
inactive: erlotinib -0.037 | [1] 0.101 | [2] 0.117 | [3] 0.056 | [4] 0.047 | [5] -0.042 | [6] 0.042 | [7] 0.031 | [8] -0.022 | [9] 0.012

PES1 (UniProt O00541)
inactive: erlotinib 0.086 | [1] -0.018 | [2] -0.195 | [3] 0.113 | [4] -0.09 | [5] 0.02 | [6] -0.054 | [7] -0.13 | [8] -0.071 | [9] -0.173

PARN (UniProt O95453)
inactive: erlotinib 0 | [1] 0.052 | [2] 0.08 | [3] -0.008 | [4] -0.028 | [5] 0.034 | [6] -0.019 | [7] -0.001 | [8] -0.02 | [9] 0.109

PATL1 (UniProt Q86TB9)
inactive: erlotinib 0.044 | [1] 0.13 | [2] -0.021 | [3] 0.048 | [4] 0.01 | [5] -0.233 | [6] -0.075 | [7] 0.029 | [8] -0.071 | [9] -0.052

PCGF2 (UniProt P35227)
inactive: erlotinib 0.11 | [1] 0.037 | [2] 0.001 | [3] -0.013 | [4] 0.177 | [5] -0.023 | [6] 0.053 | [7] -0.002 | [8] -0.057 | [9] -0.061

Two consecutive records out of the list so far, quoted:
PES1 (UniProt O00541)
inactive: erlotinib 0.086 | [1] -0.018 | [2] -0.195 | [3] 0.113 | [4] -0.09 | [5] 0.02 | [6] -0.054 | [7] -0.13 | [8] -0.071 | [9] -0.173

PARN (UniProt O95453)
inactive: erlotinib 0 | [1] 0.052 | [2] 0.08 | [3] -0.008 | [4] -0.028 | [5] 0.034 | [6] -0.019 | [7] -0.001 | [8] -0.02 | [9] 0.109
